# Measured values as given in PubChem BioAssay (EPA / NIEHS).
# Sequences of proteins named here, by UniProt entry; tags and fusion partners are left off. A change or cut given only in a name is not applied to a line headed by its entry.
# UniProt Q92731, whole entry, looked up: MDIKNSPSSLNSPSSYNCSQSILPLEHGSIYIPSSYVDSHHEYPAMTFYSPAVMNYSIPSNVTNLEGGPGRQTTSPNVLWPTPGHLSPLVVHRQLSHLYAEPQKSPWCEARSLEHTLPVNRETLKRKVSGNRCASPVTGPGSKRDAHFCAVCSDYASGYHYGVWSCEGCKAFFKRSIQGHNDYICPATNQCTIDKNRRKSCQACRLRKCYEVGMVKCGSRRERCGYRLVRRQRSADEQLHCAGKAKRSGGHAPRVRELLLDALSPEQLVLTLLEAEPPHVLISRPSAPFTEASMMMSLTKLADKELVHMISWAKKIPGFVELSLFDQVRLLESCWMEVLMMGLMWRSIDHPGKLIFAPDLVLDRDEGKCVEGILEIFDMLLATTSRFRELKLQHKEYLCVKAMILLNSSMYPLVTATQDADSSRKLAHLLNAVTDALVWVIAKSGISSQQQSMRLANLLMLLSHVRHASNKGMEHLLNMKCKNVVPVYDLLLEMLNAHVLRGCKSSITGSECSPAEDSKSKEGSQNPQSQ
# UniProt Q07869: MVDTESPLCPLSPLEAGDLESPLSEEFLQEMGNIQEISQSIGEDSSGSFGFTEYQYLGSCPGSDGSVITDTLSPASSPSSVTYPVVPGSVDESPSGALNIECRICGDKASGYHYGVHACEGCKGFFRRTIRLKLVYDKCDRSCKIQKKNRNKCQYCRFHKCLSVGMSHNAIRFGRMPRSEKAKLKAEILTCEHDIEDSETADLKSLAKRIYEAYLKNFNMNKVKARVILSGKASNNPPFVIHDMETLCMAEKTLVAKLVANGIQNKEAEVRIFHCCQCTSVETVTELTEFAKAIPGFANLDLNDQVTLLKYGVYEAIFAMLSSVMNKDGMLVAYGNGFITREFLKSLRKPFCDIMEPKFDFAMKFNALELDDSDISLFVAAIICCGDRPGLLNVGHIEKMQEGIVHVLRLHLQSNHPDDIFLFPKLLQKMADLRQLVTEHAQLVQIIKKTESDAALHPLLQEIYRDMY
# UniProt P21709: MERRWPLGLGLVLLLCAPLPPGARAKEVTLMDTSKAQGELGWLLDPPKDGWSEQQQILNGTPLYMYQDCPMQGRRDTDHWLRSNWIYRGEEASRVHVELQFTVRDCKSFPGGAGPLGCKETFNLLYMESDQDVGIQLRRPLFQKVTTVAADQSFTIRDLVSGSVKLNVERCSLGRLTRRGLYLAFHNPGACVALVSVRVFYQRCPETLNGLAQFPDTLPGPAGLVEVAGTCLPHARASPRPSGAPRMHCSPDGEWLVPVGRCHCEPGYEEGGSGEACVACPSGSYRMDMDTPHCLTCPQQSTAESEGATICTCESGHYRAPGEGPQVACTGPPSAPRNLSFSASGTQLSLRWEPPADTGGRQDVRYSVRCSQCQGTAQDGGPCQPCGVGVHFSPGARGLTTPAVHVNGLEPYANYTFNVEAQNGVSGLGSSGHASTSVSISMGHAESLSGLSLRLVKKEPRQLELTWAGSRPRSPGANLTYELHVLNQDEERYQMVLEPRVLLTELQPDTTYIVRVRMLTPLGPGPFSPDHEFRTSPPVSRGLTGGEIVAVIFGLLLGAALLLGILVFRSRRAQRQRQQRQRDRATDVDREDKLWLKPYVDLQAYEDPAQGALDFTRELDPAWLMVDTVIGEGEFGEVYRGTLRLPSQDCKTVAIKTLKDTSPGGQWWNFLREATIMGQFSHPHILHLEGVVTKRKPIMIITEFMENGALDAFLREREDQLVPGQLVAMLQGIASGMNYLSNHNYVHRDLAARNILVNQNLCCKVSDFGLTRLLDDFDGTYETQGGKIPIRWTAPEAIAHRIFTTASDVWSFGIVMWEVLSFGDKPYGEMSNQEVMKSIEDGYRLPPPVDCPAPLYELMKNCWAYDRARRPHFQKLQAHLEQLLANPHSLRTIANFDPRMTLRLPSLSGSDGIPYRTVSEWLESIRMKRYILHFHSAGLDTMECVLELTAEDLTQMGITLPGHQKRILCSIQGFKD
# UniProt P05979, whole entry, looked up: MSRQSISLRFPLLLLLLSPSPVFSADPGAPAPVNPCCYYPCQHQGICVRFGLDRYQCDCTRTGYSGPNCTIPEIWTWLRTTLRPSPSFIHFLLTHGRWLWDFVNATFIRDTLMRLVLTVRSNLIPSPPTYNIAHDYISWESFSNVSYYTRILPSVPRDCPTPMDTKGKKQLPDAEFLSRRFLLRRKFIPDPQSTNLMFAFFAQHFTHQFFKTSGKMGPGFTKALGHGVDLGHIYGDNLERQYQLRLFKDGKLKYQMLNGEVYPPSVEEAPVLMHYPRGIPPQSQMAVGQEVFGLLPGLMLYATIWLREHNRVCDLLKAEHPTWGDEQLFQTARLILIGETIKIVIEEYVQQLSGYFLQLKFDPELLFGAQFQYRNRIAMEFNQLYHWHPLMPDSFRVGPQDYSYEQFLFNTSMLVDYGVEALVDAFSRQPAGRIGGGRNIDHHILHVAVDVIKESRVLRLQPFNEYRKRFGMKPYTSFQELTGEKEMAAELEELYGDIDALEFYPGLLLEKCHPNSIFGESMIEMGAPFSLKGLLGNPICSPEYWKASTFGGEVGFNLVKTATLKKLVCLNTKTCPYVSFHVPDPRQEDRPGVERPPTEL
# UniProt O75469: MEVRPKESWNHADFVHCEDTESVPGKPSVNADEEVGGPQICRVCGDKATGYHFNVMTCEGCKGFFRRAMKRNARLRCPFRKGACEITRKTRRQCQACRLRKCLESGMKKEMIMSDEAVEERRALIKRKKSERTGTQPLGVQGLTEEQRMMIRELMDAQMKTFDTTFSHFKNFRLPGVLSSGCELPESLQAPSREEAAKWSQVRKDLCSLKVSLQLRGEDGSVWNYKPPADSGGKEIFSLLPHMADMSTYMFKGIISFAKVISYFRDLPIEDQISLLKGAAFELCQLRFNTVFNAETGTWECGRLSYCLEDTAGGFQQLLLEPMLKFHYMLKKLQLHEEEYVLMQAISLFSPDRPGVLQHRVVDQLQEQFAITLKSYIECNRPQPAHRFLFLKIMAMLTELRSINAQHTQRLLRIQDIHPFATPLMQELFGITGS
# UniProt Q96RI1: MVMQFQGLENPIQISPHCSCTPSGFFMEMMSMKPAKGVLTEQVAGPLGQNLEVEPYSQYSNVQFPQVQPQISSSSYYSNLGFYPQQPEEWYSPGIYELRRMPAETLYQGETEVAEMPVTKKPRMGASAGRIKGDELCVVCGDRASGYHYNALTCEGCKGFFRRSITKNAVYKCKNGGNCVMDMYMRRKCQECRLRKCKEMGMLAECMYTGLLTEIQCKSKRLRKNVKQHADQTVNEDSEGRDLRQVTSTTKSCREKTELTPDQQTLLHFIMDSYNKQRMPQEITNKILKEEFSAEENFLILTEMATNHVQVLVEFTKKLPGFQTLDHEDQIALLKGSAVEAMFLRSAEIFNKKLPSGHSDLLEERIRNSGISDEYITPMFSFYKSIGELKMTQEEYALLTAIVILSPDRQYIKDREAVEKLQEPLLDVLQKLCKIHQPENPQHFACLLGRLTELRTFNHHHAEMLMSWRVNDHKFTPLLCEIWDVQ
# UniProt Q01717: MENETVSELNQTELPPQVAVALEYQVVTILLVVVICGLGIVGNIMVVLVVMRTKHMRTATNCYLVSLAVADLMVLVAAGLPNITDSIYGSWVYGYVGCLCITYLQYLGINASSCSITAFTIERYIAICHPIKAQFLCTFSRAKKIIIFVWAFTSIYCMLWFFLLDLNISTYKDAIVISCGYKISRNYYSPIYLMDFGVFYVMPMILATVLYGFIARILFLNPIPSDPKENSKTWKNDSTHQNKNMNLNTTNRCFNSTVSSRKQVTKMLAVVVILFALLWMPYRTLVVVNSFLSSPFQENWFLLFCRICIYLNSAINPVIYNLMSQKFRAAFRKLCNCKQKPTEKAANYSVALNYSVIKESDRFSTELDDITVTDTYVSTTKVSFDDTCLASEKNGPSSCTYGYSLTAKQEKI
# UniProt P37231: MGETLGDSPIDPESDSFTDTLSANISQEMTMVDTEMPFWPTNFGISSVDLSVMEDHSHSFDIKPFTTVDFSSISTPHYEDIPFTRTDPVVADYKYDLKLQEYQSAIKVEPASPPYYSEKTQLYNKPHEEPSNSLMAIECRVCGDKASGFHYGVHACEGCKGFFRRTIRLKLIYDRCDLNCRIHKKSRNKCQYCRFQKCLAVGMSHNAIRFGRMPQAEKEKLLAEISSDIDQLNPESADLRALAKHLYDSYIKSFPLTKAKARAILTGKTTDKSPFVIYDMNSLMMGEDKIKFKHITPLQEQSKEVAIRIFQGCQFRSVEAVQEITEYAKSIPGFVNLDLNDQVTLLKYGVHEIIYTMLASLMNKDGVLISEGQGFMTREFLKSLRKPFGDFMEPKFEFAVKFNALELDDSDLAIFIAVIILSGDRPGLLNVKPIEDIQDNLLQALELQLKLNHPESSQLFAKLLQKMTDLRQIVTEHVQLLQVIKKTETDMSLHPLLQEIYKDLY
# UniProt P23975, whole entry, looked up: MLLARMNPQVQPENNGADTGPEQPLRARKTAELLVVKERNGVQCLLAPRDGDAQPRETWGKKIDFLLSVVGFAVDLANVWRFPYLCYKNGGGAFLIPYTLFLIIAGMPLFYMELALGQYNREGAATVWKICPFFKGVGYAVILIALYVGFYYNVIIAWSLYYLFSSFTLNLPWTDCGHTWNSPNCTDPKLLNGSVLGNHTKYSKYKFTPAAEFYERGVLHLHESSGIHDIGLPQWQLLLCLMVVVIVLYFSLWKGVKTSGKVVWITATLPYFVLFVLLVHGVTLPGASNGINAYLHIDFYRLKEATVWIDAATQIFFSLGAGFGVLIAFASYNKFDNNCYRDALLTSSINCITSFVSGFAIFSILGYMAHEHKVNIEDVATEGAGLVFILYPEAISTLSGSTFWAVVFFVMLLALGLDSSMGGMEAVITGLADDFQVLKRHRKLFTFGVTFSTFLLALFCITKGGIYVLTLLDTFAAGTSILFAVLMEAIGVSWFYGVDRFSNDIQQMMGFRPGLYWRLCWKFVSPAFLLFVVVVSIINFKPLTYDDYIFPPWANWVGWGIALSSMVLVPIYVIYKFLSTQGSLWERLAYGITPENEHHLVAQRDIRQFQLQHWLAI
# UniProt P10275: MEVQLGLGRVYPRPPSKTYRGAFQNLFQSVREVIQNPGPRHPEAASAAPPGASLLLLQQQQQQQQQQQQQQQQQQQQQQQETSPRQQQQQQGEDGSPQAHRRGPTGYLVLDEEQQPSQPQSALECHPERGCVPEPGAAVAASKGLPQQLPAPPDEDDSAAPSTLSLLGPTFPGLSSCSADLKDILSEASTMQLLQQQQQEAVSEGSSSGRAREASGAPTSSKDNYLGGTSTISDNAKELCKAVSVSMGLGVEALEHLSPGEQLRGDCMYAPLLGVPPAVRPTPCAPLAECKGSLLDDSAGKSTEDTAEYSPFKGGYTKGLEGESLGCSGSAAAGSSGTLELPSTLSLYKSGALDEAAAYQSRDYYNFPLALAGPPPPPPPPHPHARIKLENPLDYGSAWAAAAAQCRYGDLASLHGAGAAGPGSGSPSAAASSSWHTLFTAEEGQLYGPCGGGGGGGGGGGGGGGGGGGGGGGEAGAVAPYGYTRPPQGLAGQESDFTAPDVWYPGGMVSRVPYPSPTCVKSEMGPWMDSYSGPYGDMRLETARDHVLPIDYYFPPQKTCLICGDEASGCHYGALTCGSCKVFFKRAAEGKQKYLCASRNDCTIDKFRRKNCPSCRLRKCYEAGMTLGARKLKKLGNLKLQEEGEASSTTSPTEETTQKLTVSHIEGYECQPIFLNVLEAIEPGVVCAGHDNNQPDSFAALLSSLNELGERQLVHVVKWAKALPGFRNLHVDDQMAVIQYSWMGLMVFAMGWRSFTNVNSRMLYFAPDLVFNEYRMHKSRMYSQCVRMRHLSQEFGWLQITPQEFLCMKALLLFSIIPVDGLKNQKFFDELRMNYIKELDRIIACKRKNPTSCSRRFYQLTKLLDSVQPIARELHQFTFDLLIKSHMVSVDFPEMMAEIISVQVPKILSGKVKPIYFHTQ
# This list was built around the results that the source calls inconclusive (neither active nor inactive); the mix of calls is not that of the screen. For some of these results: A potency beside an inconclusive call is a rough fit, not a confirmed value. The source made the active and inactive calls. How the source made its calls: active means hit-call score of the fitted dose curve at least 0.9, where 1 is the maximum; inconclusive means response in the unintended direction; inactive means score below 0.9.
# Columns and labels:
# [1] = target: Estrogen receptor beta (Homo sapiens) (UniProt Q92731); assay: OT_ER_ERbERb_0480: Odyssey Thera (OT) 8-hour HEK293T Protein-Complementation Assay for Estrogen Receptor-beta/-beta Homodimer (AID 2283357);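 further: active means signal gain over DMSO baseline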
# How it was run: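 Readout: increase in mean fluorescence intensity (nucleus for agonists; nucleus plus cytoplasm for antagonists) relative to DMSO, from a reporter-fragment complementation of human ER-beta LBD homodimer in HEK293T cells dosed 8 hours.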
# [2] = target: human Peroxisome Proliferator-activated Receptor alpha (PPARa), PPARA (gene 5465) (UniProt Q07869); assay: NVS_NR_hPPARa: NovaScreen (NVS) Nuclear Receptor Binding Assay for human Peroxisome Proliferator-activated Receptor alpha (PPARa) (AID 2283359);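 further: activity means loss of TR-FRET signal versus DMSO baseline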
# How it was run: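 Cell-free binding assay with extracted human protein, read by TR-FRET 1 h after chemical dosing. Loss of signal relative to DMSO baseline indicates binding. Primary screen used duplicate single concentration (25 uM); actives followed up in concentration series.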
# [3] = Tanguay_ZF_120hpf_CIRC_legacy: (Legacy) Oregon State University Tanguay Lab 120 Hour Post-fertilization zebrafish Assay for Circulatory Malformation (AID 2283651)
# How it was run: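 Tropical 5D wild-type embryos, dechorionated with pronase at 4 hpf, were placed singly in wells at 6 hpf and exposed statically at 28C to 120 hpf (0.64% DMSO final). Circulatory malformation was scored present/absent by brightfield microscopy.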
# [4] = ACEA_AR_agonist_AUC_viability: ACEA Biosciences xCELLigence Real-Time Cell Analysis on Androgen Receptor Agonism for Viability (AID 2283775);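 on AC50: viability read 80 hours after compound addition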
# How it was run: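 Read-out is area under the impedance curve at 80 h post-dose in 22Rv1 cells, with DMSO as baseline and signal loss taken as reduced viability. Compounds ran in duplicate from 100 uM final.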
# [5] = target: human Ephrin type-A Receptor 1 (EphA1), EPHA1 (gene 2041) (UniProt P21709); assay: NVS_ENZ_hEphA1: NovaScreen (NVS) Enzymatic Assay for human Ephrin type-A Receptor 1 (EphA1) (AID 2283158);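 further: activity is signal loss versus DMSO meaning EphA1 kinase inhibition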
# How it was run: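 Biochemical kinase assay run cell-free; 1 h incubation; readout is fluorescence with mobility-shift separation of product. Concentration-response up to 50 uM for actives from a 25 uM screen.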
# [6] = target: sheep Cyclooxygenase-1 (Cox1), PTGS1 (gene 443551) (UniProt P05979); assay: NVS_ENZ_oCOX1: NovaScreen (NVS) Enzymatic Assay for sheep Cyclooxygenase-1 (Cox1) (AID 2283239);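 further: actives reduce cyclooxygenase activity so potencies are for inhibitors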
# How it was run: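 Native ovine seminal vesicle protein serves as enzyme source in this biochemical assay. Colorimetric signal is recorded 0.66 h after chemical addition, and decreases versus the DMSO control define activity.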
# [7] = CCTE_Deisenroth_AIME_384WELL_CTox_Inactive: Cytotoxicity Assessment (CTOX) in CCTE's 384-well Estrogen Receptor Transactivation Assay without AIME metabolic competence (metabolism negative), Deisenroth Lab (AID 2284039);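 further: cell viability via live-cell protease substrate cleaved to fluorescent probe; cells exposed 24 h to medium preincubated 2 h with alginate-water beads without S9; loss of fluorescence signal means loss of viability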
# How it was run: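 VM7Luc4E2 human breast cells received conditioned medium from a 2 h incubation of chemical with alginate-water microspheres (no S9), then were exposed 24 h. Viability was read as protease-substrate cleavage to a fluorescent probe; loss of signal was fitted bidirectionally over 0.002–200 uM.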
# [8] = target: Nuclear receptor subfamily 1 group I member 2 (Homo sapiens) (UniProt O75469); assay: NVS_NR_hPXR: NovaScreen (NVS) Nuclear Receptor Binding Assay for human Pregnane X Receptor (PXR) (AID 2283365);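 further: a drop in FRET signal versus DMSO baseline means the compound binds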
# How it was run: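 Binding was measured by time-resolved fluorescence resonance energy transfer after a 2 h exposure of extracted human PXR protein without cells. Compounds were first tested at 25 uM in duplicate, with concentration series for actives; DMSO defined baseline.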
# [9] = target: Bile acid receptor (Homo sapiens) (UniProt Q96RI1); assay: OT_FXR_FXRSRC1_1440: Odyssey Thera (OT) 24-hour HEK293T Protein-Complementation Assay for Farnesoid X receptor/SRC-1 Co-activator (AID 2283384)
# How it was run: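 HEK293T cells were dosed with compound and read 24 h later by fluorescence intensity from protein-fragment complementation reporting FXR/SRC-1 co-activator interaction. Gain of signal was fitted relative to DMSO negative control as baseline.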
# [10] = ACEA_AR_antagonist_AUC_viability: ACEA Biosciences xCELLigence Real-Time Cell Analysis on Androgen Receptor Antagonism for Viability (AID 2283776);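 further: 22Rv1 human prostate cancer cells growing on impedance electrode plates; area under impedance growth curve at 80 h after dosing as viability; hits lower the growth signal relative to DMSO meaning cytotoxicity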
# How it was run: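 Real-time electrical impedance tracks 22Rv1 proliferation after continuous compound exposure (top 100 uM final, 1:4 steps, 8 concentrations). The 80 h area-under-curve serves as the cytotoxicity readout relative to DMSO.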
# [11] = target: rat Thyrotropin Releasing Hormone Receptor (TRH), Trhr (gene 25570) (UniProt Q01717); assay: NVS_GPCR_rTRH: NovaScreen (NVS) G Protein-Coupled Receptor Assay for rat Thyrotropin Releasing Hormone Receptor (TRH) (AID 2283329);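 further: hit means lower bound tracer signal versus DMSO baseline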
# How it was run: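 Cell-free radioligand binding on rat forebrain membranes; bound tracer measured by filter-based scintillation counting 4 hours after dosing. Loss of signal versus DMSO baseline indicates displacement; primary screen at 25 uM in duplicate, actives then run in concentration series.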
# [12] = target: Peroxisome proliferator-activated receptor gamma (Homo sapiens) (UniProt P37231); assay: NVS_NR_hPPARg: NovaScreen (NVS) Nuclear Receptor Binding Assay for human Peroxisome Proliferator-activated Receptor gamma (PPARg) (AID 2283370)
# How it was run: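 Fluorescence polarization measures competitive binding to extracted PPARg in a cell-free format. Reading is taken at 2 h; activity is signal loss relative to DMSO. Screening at 25 uM in duplicate preceded confirmatory dose series.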
# [13] = Tanguay_ZF_120hpf_SOMI_legacy: (Legacy) Oregon State University Tanguay Lab 120 Hour Post-fertilization zebrafish Assay for Somite Malformation (AID 2283647)
# How it was run: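 5D WT zebrafish; chorion removed 4 hpf; 1 embryo/well from 6 hpf; static exposure to 120 hpf, 28C, 0.64% DMSO final. Endpoint: somite malformation, binary, brightfield. Mortality excluded.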
# [14] = Tanguay_ZF_120hpf_PFIN_legacy: (Legacy) Oregon State University Tanguay Lab 120 Hour Post-fertilization zebrafish Assay for Pectoral Fin Malformation (AID 2283648);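 further: each larva judged yes or no for fin defect by brightfield with dead larvae skipped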
# How it was run: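 Tropical 5D wild-type embryos, dechorionated with pronase at 4 hpf, were placed singly in wells at 6 hpf and statically exposed until 120 hpf at 28C, sealed and dark, with 0.64% (vol/vol) final DMSO; pectoral fin malformation scored present/absent.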
# [15] = Tanguay_ZF_120hpf_TRUN_legacy: (Legacy) Oregon State University Tanguay Lab 120 Hour Post-fertilization zebrafish Assay for Truncated Body (AID 2283655)
# How it was run: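 5D wild-type larvae; pronase dechorionation; static exposure 6→120 hpf, 28C; DMSO 0.64% final; 5uM trimethyltin chloride positive control. Readout: presence/absence of truncated body, analyzed relative to DMSO.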
# [16] = target: human Vascular Endothelial Growth Factor Receptor 1 (VEGFR1), FLT1 (gene 2321) (UniProt P17948); assay: NVS_ENZ_hVEGFR1: NovaScreen (NVS) Enzymatic Assay for human Vascular Endothelial Growth Factor Receptor 1 (VEGFR1) (AID 2283226)
# How it was run: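 Cell-free assay of recombinant human VEGFR1 kinase with substrate, measured 1 h after dosing; fluorescence with electrophoretic mobility-shift separation of substrate and product, referenced to DMSO; primary screen at 25 uM in duplicate, actives then run in concentration series.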
# [17] = target: human Norepinephrine Transporter (NET), SLC6A2 (gene 6530) (UniProt P23975); assay: NVS_TR_hNET: NovaScreen (NVS) Transporter Assay for human Norepinephrine Transporter (NET) (AID 2283377);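 further: cell-free membrane protein extracted from CHO cells expressing human NET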
# How it was run: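 Radioligand binding to human NET in cell-free CHO-derived protein preparations, read by filter-based scintillation counting 1 hour after dosing. Loss of signal versus DMSO baseline indicated displacement; primary screening in duplicate at 25 uM, actives then titrated.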
# [18] = Tanguay_ZF_120hpf_OTIC_legacy: (Legacy) Oregon State University Tanguay Lab 120 Hour Post-fertilization zebrafish Assay for Otic Vesicle Malformation (AID 2283639)
# How it was run: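 Tropical 5D wild-type zebrafish embryos were exposed statically in sealed, foil-covered plates at 28C until 120 hpf, with 0.64% (vol/vol) DMSO final. Otic vesicle malformation was scored present/absent by brightfield microscopy, with DMSO as baseline.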
# AR (gene 367) = AR (gene 367) (UniProt P10275); assay: ACEA_AR_agonist_80hr: ACEA Biosciences xCELLigence Real-Time Cell Analysis on Androgen Receptor Agonism for Proliferation (AID 2283783);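 further: hits increase impedance growth signal above DMSO baseline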
# How it was run: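 22Rv1 human prostate cancer cells were seeded after preconditioning in assay medium and monitored overnight, then dosed in an eight-point 1:4 dilution series from 100 uM (≤0.5% DMSO). Impedance-based growth was read at 80 h, gain-of-signal versus DMSO.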
# [19] = target: Nucleoli Translocation, AR (gene 367) (UniProt P10275); assay: UPITT_HCI_U2OS_AR_TIF2_Nucleoli_Agonist: University of Pittsburgh U2OS Androgen Receptor-Transcriptional Intermediary Factor 2 (AR-TIF2) Agonism High Content Imaging Assay for Nucleoli Translocation (AID 2283998)
# How it was run: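 Red-tagged human androgen receptor co-expressed with GFP-tagged TIF2 serves as the binding reporter. Primary testing used 20 uM final (0.2% DMSO); follow-up dose response covered 0.195 to 50 uM final (0.5% DMSO).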
smiles,measurement,setting,value
CCCCOC(=O)CCCCC(=O)OCCCC,AC50,[1],inconclusive: 50 µM
same,outcome,[2],inactive
same,AC50,[3],inconclusive: 1.2 µM
same,outcome,[4],inactive
IC(I)I,AC50,[5],inconclusive: 0.107 µM
O=C1c2ccccc2C(=O)c2c(O)ccc(O)c21,AC50,[6],inconclusive: 6.44 µM
ON=C1CCCCC1,AC50,[7],inconclusive: 0.2 nM
CCO[Si](CCCS)(OCC)OCC,outcome,[5],inactive
C1=CC2C3C=CC(C3)C2C1 (centres undefined),AC50,[1],inconclusive: 49.2 µM
same,AC50,[8],inconclusive: 24.6 µM
same,AC50,[9],inconclusive: 49.2 µM
same,AC50,[4],inconclusive: 221 nM
same,AC50,[10],inconclusive: 16.4 µM
same,AC50,[7],inconclusive: 0.2 nM
c1cnc2c(c1)ccc1cccnc12,AC50,[7],active: 15700 nM
O=C(NS(=O)(=O)/C=C/c1ccccc1)c1ccc(F)cc1Cl,AC50,[11],active: 0.0025 µM
same,AC50,[1],inconclusive: 50 µM
same,AC50,[12],active: 39.6 µM
same,AC50,[13],inconclusive: 85.2 µM
same,AC50,[14],inconclusive: 133 µM
same,AC50,[3],inconclusive: 201 µM
same,AC50,[4],active: 5760 nM
CCCCCCCCCCCCCCCC,outcome,[13],inactive
CC(O)CO (centres undefined),outcome,[14],inactive
same,outcome,[4],inactive
CCCCCCC(C)OC(=O)COc1nc(F)c(Cl)c(N)c1Cl (centres undefined),AC50,[15],inconclusive: 59.9 µM
same,AC50,[7],inconclusive: 0.2 nM
CC(C)(c1ccccc1)c1ccc(Nc2ccc(C(C)(C)c3ccccc3)cc2)cc1,AC50,[11],inconclusive: 25 µM
CC1CCC(C(C)CS)CC1S (centres undefined),AC50,[6],active: 25 µM
O=[N+]([O-])c1cc(C(F)(F)F)ccc1Cl,AC50,[16],inconclusive: 6.86 µM
Oc1ccc(Nc2ccccc2)cc1,AC50,[5],inconclusive: 6.2 µM
same,AC50,[16],inconclusive: 25 µM
same,AC50,[17],active: 11.9 µM
CC(=O)Oc1ccccc1C(=O)O,AC50,[2],inconclusive: 25 µM
same,AC50,[12],inconclusive: 25 µM
same,AC50,[18],inconclusive: 6.09 µM
same,AC50,[13],inconclusive: 45.8 µM
same,AC50,AR (gene 367),inconclusive: 50 µM
same,outcome,[19],inactive
same,AC50,[7],inconclusive: 1.23 nM
Nc1ccc(Cl)c([N+](=O)[O-])c1,outcome,[17],inactive
CCC(C)=O,AC50,[6],inconclusive: 25 µM
CC(=O)OCC(COC(C)=O)OC(C)=O,AC50,[7],inconclusive: 100000 nM
CNS(=O)(=O)c1cc(C(=O)N2CCC(CCN3C4CCC3CC(n3c(C)nc5ccccc53)C4)(c3cccc(F)c3)CC2)c(Cl)cc1F (centres undefined),outcome,[1],inactive
same,outcome,[2],inactive
same,outcome,[12],inactive
same,AC50,[17],active: 2.25 µM
same,AC50,[3],inconclusive: 16.5 µM
same,AC50,[19],inconclusive: 50 µM

# Retrieved one by one from above:
smiles,measurement,setting,value
O=C(NS(=O)(=O)/C=C/c1ccccc1)c1ccc(F)cc1Cl,AC50,[11],active: 0.0025 µM
CC(C)(c1ccccc1)c1ccc(Nc2ccc(C(C)(C)c3ccccc3)cc2)cc1,AC50,[11],inconclusive: 25 µM
Oc1ccc(Nc2ccccc2)cc1,AC50,[17],active: 11.9 µM
